Substitutions are numbered along the chain they refer to. These are yes or no findings as the source states them, for the method shown. Some results given as binding are weak or reduced against the parent protein; the word gives no strength. Values belong to the binder of their own block, whether it stands above or below them.
Molecular target: Axl (UniProt P30530)
Test: phage display selection

Amino acid sequences for entries named in this document (tags omitted). Residues count along the entry.
UniProt P30530, residues 26-449: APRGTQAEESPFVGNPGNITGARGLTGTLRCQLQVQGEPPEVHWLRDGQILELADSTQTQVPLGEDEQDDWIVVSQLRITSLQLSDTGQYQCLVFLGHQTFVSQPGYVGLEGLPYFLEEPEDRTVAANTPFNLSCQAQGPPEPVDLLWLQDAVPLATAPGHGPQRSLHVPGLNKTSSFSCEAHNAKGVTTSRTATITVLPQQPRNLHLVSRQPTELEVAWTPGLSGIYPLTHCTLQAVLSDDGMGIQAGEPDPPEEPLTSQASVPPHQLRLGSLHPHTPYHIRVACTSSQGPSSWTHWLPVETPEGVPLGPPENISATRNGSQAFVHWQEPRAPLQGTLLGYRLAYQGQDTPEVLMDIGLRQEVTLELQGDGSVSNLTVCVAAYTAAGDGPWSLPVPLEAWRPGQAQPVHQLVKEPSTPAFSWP

B2: SEQ ID NO 474 (designed binder)
chain: NVSPPRRARVTDATETTITITWARSQSTVVGFQVDAVPANGQTPIQRTIKPDVRSYTITGLQPGTDYKIYLYTLTVVGGSAYGSSPVVIDAST
binding: binds

B4: SEQ ID NO 472 (designed binder)
chain: NVSPPRRARVTDATETTITITWGLAESKVVGFQVDAVPANGQTPIQRTIKPDVRSYTITGLQPGTDYKIYLYTLNGNVGGLTVVIDAST
binding: binds

B5: SEQ ID NO 445 (designed binder)
chain: NVSPPRRARVTDATETTITIRWGAFTGFQVDAVPANGQTPIQRTIKSDIHGYTITGLQPGTDYKIYLYTLNDNARSSPVVIDAST
binding: binds

B6: SEQ ID NO 453 (designed binder)
chain: B5 chain with A24Q, F25V, T26I, G27S, G51T
binding: binds

B7: SEQ ID NO 468 (designed binder)
chain: NVSPPRRACVTDATETTITISWRLAESKVVGFQVDAVPANGQTPIQRTIHTDTSSYTITGLQPGTDYKIYLYTLNTVGKSAVASSPVVIDAST
binding: binds

B9: SEQ ID NO 449 (designed binder)
chain: NVSPPRRARVTDATETTITISWRTKTETITGFQVDAVPANGQTLIQRTITASVSSYTITGLQPGTDYKIYLYTLSEYEETSSPVVIDAST
binding: binds

B11: SEQ ID NO 450 (designed binder)
chain: NVSPPRRARVTDATETTITITWRVSFQVDAVPANGQTPIQRTIKRGVSSYTITGLQPGTDYKIYLYTLNDNARSSPVVIDAST
binding: binds

B12: SEQ ID NO 480 (designed binder)
chain: B11 chain with T21S, R23A, S25G, G46D, S48R, S49A
binding: binds

B14: SEQ ID NO 481 (designed binder)
chain: NVSPPRRARVTDATETTITIRWALPRGTVVGFQVDAVPANGQTPIQRTIHRTATSYTITGLQPGTDYKIYLYTLNDNARSSPVVIDAST
binding: binds

B15: SEQ ID NO 476 (designed binder)
chain: NVSPPRRARVTDATETTITISWRTKTETITGLQVDAVPANGQTPIQRTIATNENSYTITGLQPGTDYKIYLYTLNGRGATSSPVVIDAST
binding: binds

B18: SEQ ID NO 457 (designed binder)
chain: NVSPPRRARVTDATETTITIRWALPQSAFDRFQVDAVPANGQTPIQRTITTAIRTYTITGLQPGTDYKIYLYTLNDNARSSPVVIDAST
binding: binds

B21: SEQ ID NO 443 (designed binder)
chain: NVSPPRRARVTDATETTITISWRTKTETITGFQVDAVPANGQTPIQRTINSSAHSYTITGLQPGTDYKIYLYTLNGYGVGTLASSPVVIDAST
binding: binds

B23: SEQ ID NO 483 (designed binder)
chain: B21 chain with N50A, S52N, A53I, N75T, T81A, L82V, A83G
binding: binds

B25: SEQ ID NO 465 (designed binder)
chain: B21 chain with N50A, S51T, S52G, H54R, S55V, N75T, T81A, L82V
binding: binds

B26: SEQ ID NO 473 (designed binder)
chain: B21 chain with S51R, S52N, S55A, N75T, L82V
binding: binds

B27: SEQ ID NO 467 (designed binder)
chain: NVSPPRRARVTDATETTITITWTGSRGKFVGFQVDAVPANGQTPIQRTIKPDVRSYTITGLQPGTDYKIYLYTLYGYVSGSSPVVIDAST
binding: binds

B28: SEQ ID NO 444 (designed binder)
chain: NVSPPRRARVTDATETTITIRWKVDGFQVDAVPANGQTPIQRTITRGVRVYTITGLQPGTDYKIYLYTLNDNARSSPVVIDAST
binding: binds

B30: SEQ ID NO 487 (designed binder)
chain: B28 chain with D25L, T45K, G47N, V48I, R49S, V50S
binding: binds

B32: SEQ ID NO 451 (designed binder)
chain: B28 chain with K23G, V24A, D25L, T45K, G47S, R49T, V50T
binding: binds

B33: 1637116_AXLB05 (designed binder)
chain: B28 chain with T45H, G47A, R49N
binding: binds

B34: SEQ ID NO 459 (designed binder)
chain: B28 chain with D25P, T45H, V48I, V50S
binding: binds

B36: SEQ ID NO 461 (designed binder)
chain: B28 chain with K23S, V24L, D25L, T45K, G47N, R49N, V50A
binding: binds

B37: SEQ ID NO 482 (designed binder)
chain: B28 chain with D25N, T45H, G47A
binding: binds

B38: SEQ ID NO 455 (designed binder)
chain: B28 chain with V24A, D25A, T45K, G47N, V48A, R49N, V50I
binding: binds

B39: SEQ ID NO 458 (designed binder)
chain: B28 chain with K23P, D25L, T45K, G47T, R49S
binding: binds

B40: SEQ ID NO 462 (designed binder)
chain: B28 chain with V24G, G26R, R46S, R49T, V50G
binding: binds

B41: SEQ ID NO 460 (designed binder)
chain: B28 chain with V24G, D25A, G26D, V50T
binding: binds

B42: SEQ ID NO 485 (designed binder)
chain: B28 chain with K23A, D25P, T45Q, V50A
binding: binds

Second part, the binder after the results:

binding: binds
B1: SEQ ID NO 442 (designed binder)
chain: B2 chain with T21S, A23K, R24V, S25A, Q26P, T75N, V77F, G83S

binding: binds
B3: SEQ ID NO 477 (designed binder)
chain: B2 chain with T21S, A23K, Q26E, T28Q, T75N, G79R

binding: binds
B8: SEQ ID NO 456 (designed binder)
chain: NVSPPRRARVTDATETTITIPWTLGVEASGVITGFQVDAVPANGQTPIQRTIKPDVRSYTITGLQPGTDYKIYLYTLYGGGKTSSPVVIDAST

binding: binds
B10: SEQ ID NO 484 (designed binder)
chain: NVSPPRRARVTDATETTITISWAVPQSPIVSFQVDAVPANGQTPIHRTIDTGASGYTITGLQPGTDYKIYLYTLNDNARSSPVVIDAST

binding: binds
B13: SEQ ID NO 471 (designed binder)
chain: B11 chain with T21R, R23S, V24N, S25G, G46T, V47A, S48P

binding: binds
B16: SEQ ID NO 486 (designed binder)
chain: B15 chain with L32I, E53V, N54H, S55V, N75T, A79D, T80S

binding: binds
B17: SEQ ID NO 447 (designed binder)
chain: B18 chain with A28T, D30T, A52N, T55G

binding: binds
B19: SEQ ID NO 469 (designed binder)
chain: B14 chain with A23E, T28E, V30T, H50K, R51G, T52A, A53K, T54R, S55G

binding: binds
B20: SEQ ID NO 446 (designed binder)
chain: NVSPPRRARVTDATETTITISWRRSGSEVTRFQVDAVPANGQTPIQRTIARSITVYTITGLQPGTDYKIYLYTLNDNARSSPVVIDAST

binding: binds
B22: SEQ ID NO 470 (designed binder)
chain: B21 chain with N50A, S51T, S52A, A53I, H54R, S55V, N75T, T81E, L82S, A83R

binding: binds
B24: SEQ ID NO 478 (designed binder)
chain: B21 chain with N50A, S51T, S52G, A53I, H54R, S55V, N75T, A83S

binding: binds
B29: 1637116_AXLB02 (designed binder)
chain: B28 chain with K23P, D25P, T45H, G47A, R49T

binding: binds
B31: SEQ ID NO 448 (designed binder)
chain: B28 chain with K23E, V24A, D25V, T45K, G47N, R49T

binding: binds
B35: SEQ ID NO 464 (designed binder)
chain: B28 chain with K23A, D25P, T45H, R49S

binding: binds
B43: SEQ ID NO 463 (designed binder)
chain: B28 chain with K23S, V24I, D25T, T45N, V50S
